Test results as given in patent US20030087963A1, “Methods of preparing and using 2-hydroxy derivatives of sibutramine and its metabolites” (priority 2001, published 2003).
At least one compound was matched to its structure with a doubt left.

Tested on: nonselective muscarinic receptor
Experiment: Binding at the nonselective muscarinic receptor from rat cerebral cortex
Settings: tested at 10^-9, 10^-7, 10^-5 M
Protocol: The 2-hydroxy derivatives of the sibutramine metabolites N-desmethyl and N-didesmethylsibutramine (DMS and DDMS, respectively) were tested for their inhibition of functional uptake of serotonin (5-HT), norepinephrine (NE), or dopamine (DA), into synaptosomes prepared from rat whole brain, hypothalamus, or corpora striata, respectively, using methods known in the art. In addition, binding was determined at the nonselective muscarinic receptor and the […] from rat cerebral cortex and rat adipose tissue, respectively.
IC50 values (concentration inhibiting control activity by 50 percent) were then determined by nonlinear regression analysis of the inhibition curves and tabulated below.

SMILES	Muscarinic Binding, inhibition in initial test (no IC50 determined)
CC(C)(O)C[C@@H](N)C1(c2ccc(Cl)cc2)CCC1 [2-(R)-OH-DDMS, (R)-(−)-4-amino-[1-(4-chlorophenyl)cyclobutyl]-2-methyl-butan-2-ol]	— (—indicates <50% inhibition)
CC(C)(O)C[C@H](N)C1(c2ccc(Cl)cc2)CCC1 [2-(S)-OH-DDMS, (S)-(+)-4-amino-[1-(4-chlorophenyl)cyclobutyl]-2-methyl-butan-2-ol]	— (—indicates <50% inhibition)
